Measurements reported in PubChem BioAssay AID493246 (Drosophila RNAi Screening Center, 2011).

Purpose: 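Genes fly cells need to grow and stay alive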 (primary screen)
Cells: Drosophila Kc and S2R+ cells
Reagent: long dsRNA against Drosophila genes
Measurement: 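Cell number per well after knock-down, printed as raw plate values; calls were based on per-plate z-scores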
Reading the numbers: Kc cell number and S2R+ cell number: higher = more cells remaining
Active means: 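Counted as a hit if cell number falls by a z-score of at least 3 within its plate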
The screen tested about 21,000 reagents; shown is an unselected part of those with a known target gene and a result. Over the whole deposit, 429 (2%) got an active call. 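Values are raw and not normalised between plates; calls rest on per-plate z-scores that were not deposited.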 A plus sign joins genes that one reagent is predicted to hit. The record does not give: the amount of reagent, the time to read-out.

gene knocked down | DRSC id | Kc cell number, rep 1 | Kc cell number, rep 2 | S2R+ cell number, rep 1 | S2R+ cell number, rep 2 | call
Prosalpha4T1 | DRSC16800 | 1.24e6 | 1.33e6 | 9.48e5 | 1.04e6 | inactive
Fbxl7 | DRSC15553 | 1.21e6 | 1.24e6 | 1.21e6 | 1.34e6 | inactive
Ice2 | DRSC14268 | 1.83e6 | 1.87e6 | 1.49e6 | 1.49e6 | inactive
Cul3 | DRSC03537 | 1.39e6 | 1.41e6 | 1.21e6 | 1.18e6 | inactive
CG14667 | DRSC12253 | 1.51e6 | 1.70e6 | 1.32e6 | 1.42e6 | inactive
Cpr62Ba | DRSC08403 | 1.41e6 | 1.35e6 | 1.12e6 | 1.29e6 | inactive
CCT1 | DRSC16877 | 1.58e6 | 1.52e6 | 9.19e5 | 1.11e6 | inactive
Larp4B | DRSC08192 | 1.39e6 | 1.22e6 | 8.21e5 | 1.06e6 | inactive
PCID2 | DRSC10822 | 1.48e6 | 1.55e6 | 1.32e6 | 1.09e6 | inactive
Cyp305a1 | DRSC11126 | 1.44e6 | 1.52e6 | 1.26e6 | 1.30e6 | inactive
spict | DRSC02157 | 1.43e6 | 1.50e6 | 1.00e6 | 1.11e6 | inactive
asRNA:CR42547 + CG15674 | DRSC04264 | 1.52e6 | 1.56e6 | 1.24e6 | 3.23e5 | inactive
CG9570 | DRSC20687 | 1.82e6 | 1.69e6 | 1.09e6 | 1.28e6 | inactive
SmydA-6 | DRSC07341 | 1.52e6 | 1.50e6 | 1.23e6 | 1.36e6 | inactive
Uev1A | DRSC09763 | 1.46e6 | 1.47e6 | 1.41e6 | 1.28e6 | inactive
Cbp53E | DRSC07356 | 1.58e6 | 1.72e6 | 1.20e6 | 1.20e6 | inactive
wap | DRSC20626 | 1.52e6 | 1.59e6 | 1.03e6 | 1.08e6 | inactive
CG9044 | DRSC03130 | 1.28e6 | 1.37e6 | 6.53e5 | 8.98e5 | inactive
Prp5 | DRSC19975 | 1.73e6 | 1.62e6 | 1.04e6 | 1.11e6 | inactive
klhl10 | DRSC05274 | 1.49e6 | 1.50e6 | 1.07e6 | 1.19e6 | inactive
klhl10 | DRSC19171 | 1.41e6 | 1.69e6 | 1.19e6 | 1.27e6 | inactive
klhl10 | DRSC20750 | 1.44e6 | 1.48e6 | 1.10e6 | 1.20e6 | inactive
klhl10 | DRSC20925 | 1.60e6 | 1.66e6 | 1.17e6 | 1.29e6 | inactive
Rich | DRSC11607 | 1.44e6 | 1.47e6 | 1.33e6 | 1.34e6 | inactive
CG10038 | DRSC14178 | 1.49e6 | 1.56e6 | 1.22e6 | 1.31e6 | inactive
Rcd-1r + CG13102 | DRSC03266 | 1.66e6 | 1.65e6 | 1.15e6 | 1.30e6 | inactive
Irp-1A | DRSC16719 | 1.33e6 | 1.33e6 | 1.14e6 | 1.26e6 | inactive
CG13471 | DRSC10015 | 1.35e6 | 1.36e6 | 1.10e6 | 1.24e6 | inactive
Rab23 | DRSC12305 | 1.52e6 | 1.72e6 | 1.29e6 | 1.34e6 | inactive
CG2926 | DRSC12321 | 1.65e6 | 1.67e6 | 1.02e6 | 1.08e6 | inactive
CG12213 | DRSC14478 | 1.31e6 | 1.38e6 | 1.08e6 | 1.20e6 | inactive
CG15056 | DRSC19630 | 1.56e6 | 1.61e6 | 1.12e6 | 1.23e6 | inactive
OtopLb | DRSC00594 | 1.26e6 | 1.24e6 | 8.34e5 | 1.01e6 | inactive
Bx | DRSC19350 | 1.60e6 | 1.66e6 | 1.07e6 | 1.14e6 | inactive
St3 | DRSC04505 | 1.35e6 | 1.44e6 | 1.16e6 | 1.24e6 | inactive
BaraB | DRSC06420 | 1.50e6 | 1.57e6 | 1.26e6 | 1.34e6 | inactive
Sf3a2 | DRSC09801 | 1.19e6 | 1.30e6 | 9.37e5 | 9.11e5 | inactive
Nek2 | DRSC18124 | 6.54e5 | – | 1.01e6 | – | inactive
Neurl4 | DRSC10638 | 1.48e6 | 1.55e6 | 1.19e6 | 1.22e6 | inactive
yellow-e2 | DRSC15169 | 1.31e6 | 1.47e6 | 1.06e6 | 1.23e6 | inactive

Reformatted: 5 of the entries above
{"gene knocked down":"Cul3","DRSC id":"DRSC03537","Kc cell number, rep 1":1.39e6,"Kc cell number, rep 2":1.41e6,"S2R+ cell number, rep 1":1.21e6,"S2R+ cell number, rep 2":1.18e6,"call":"inactive"}
{"gene knocked down":"CG14667","DRSC id":"DRSC12253","Kc cell number, rep 1":1.51e6,"Kc cell number, rep 2":1.70e6,"S2R+ cell number, rep 1":1.32e6,"S2R+ cell number, rep 2":1.42e6,"call":"inactive"}
{"gene knocked down":"Cpr62Ba","DRSC id":"DRSC08403","Kc cell number, rep 1":1.41e6,"Kc cell number, rep 2":1.35e6,"S2R+ cell number, rep 1":1.12e6,"S2R+ cell number, rep 2":1.29e6,"call":"inactive"}
{"gene knocked down":"CCT1","DRSC id":"DRSC16877","Kc cell number, rep 1":1.58e6,"Kc cell number, rep 2":1.52e6,"S2R+ cell number, rep 1":9.19e5,"S2R+ cell number, rep 2":1.11e6,"call":"inactive"}
{"gene knocked down":"Larp4B","DRSC id":"DRSC08192","Kc cell number, rep 1":1.39e6,"Kc cell number, rep 2":1.22e6,"S2R+ cell number, rep 1":8.21e5,"S2R+ cell number, rep 2":1.06e6,"call":"inactive"}
